# Data source: PubChem BioAssay AID1259308 (NCATS, 2017)
# Screen: 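Candidate targets for better recombinant protein yield in mammalian cells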 (primary screen)
# Cells: human HEK293 embryonic kidney cells stably expressing firefly luciferase (HEK-CMV-Luc2-Hygro)
# Knock-down reagent: single siRNA against human genes, 0.8 pmol siRNA per well
# Duration: 72 h
# Measured: 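Luciferase light (ONE-Glo) measured on one replicate plate set and viability (CellTiter-Glo) on the other, scaled to a negative control siRNA, with robust z-scores and luciferase per cell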
# Scale: total luciferase, z-score and total luciferase, % of control: higher = more reporter protein produced
# Hit rule: 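Active when the median/MAD z-score for overall luciferase is greater than 3; a gene was taken forward for validation with new siRNAs if at least two of its three siRNAs passed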
# Meaning of the calls: active = raised luciferase; inactive = no rise
# Here is one part, drawn at random, of about 59,000 deposited reagents. In the full data, about 1,510 (2.6%) are marked active. 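Calls use total luciferase alone and ignore viability, so some active siRNAs may act by altering cell number.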 Reagents against one gene are numbered here. Not all columns of the deposit are shown.
Gene,siRNA no.,"total luciferase, z-score","total luciferase, % of control",Outcome
PNMA5,1,-0.652,68.9,inactive
PNMA5,2,5.7,195,active
PNMA5,3,0.284,87.5,inactive
NECTIN3,1,-0.468,72.6,inactive
NECTIN3,2,-0.839,65.2,inactive
NECTIN3,3,0.875,99.3,inactive
ZNF620,1,-0.601,69.9,inactive
ZNF620,2,-0.748,67,inactive
ZNF620,3,0.381,89.5,inactive
PCMTD2,1,0.561,93,inactive
PCMTD2,2,-0.136,79.2,inactive
PCMTD2,3,1.81,118,inactive
RPP21,1,1.55,113,inactive
RPP21,2,-0.13,79.3,inactive
RPP21,3,1.46,111,inactive
LTK,1,0.62,94.2,inactive
LTK,2,-1.61,49.8,inactive
LTK,3,0.00857,82.1,inactive
KIAA0586,1,-0.622,69.5,inactive
KIAA0586,2,2.22,126,inactive
KIAA0586,3,4.78,177,active
ZNF578,1,-0.533,71.3,inactive
ZNF578,2,-0.64,69.1,inactive
ZNF578,3,2.19,125,inactive
STX6,1,-0.674,68.5,inactive
STX6,2,0.202,85.9,inactive
STX6,3,-0.445,73,inactive
SWI5,1,0.529,92.4,inactive
SWI5,2,0.811,98,inactive
SWI5,3,0.101,83.9,inactive
UGT2A1,1,-0.173,78.4,inactive
UGT2A1,2,1.37,109,inactive
UGT2A1,3,1.08,103,inactive
H4C16,1,-0.11,79.7,inactive
H4C16,2,-1.02,61.5,inactive
H4C16,3,-0.662,68.7,inactive

Records listed above marked active (2):
Gene,siRNA no.,"total luciferase, z-score","total luciferase, % of control",Outcome
PNMA5,2,5.7,195,active
KIAA0586,3,4.78,177,active

Next entries follow.
Gene,siRNA no.,"total luciferase, z-score","total luciferase, % of control",Outcome
PTPRT,1,1.57,113,inactive
PTPRT,2,0.739,96.6,inactive
PTPRT,3,-0.575,70.5,inactive
KRT5,1,0.382,89.5,inactive
KRT5,2,0.0523,82.9,inactive
KRT5,3,0.371,89.3,inactive
LTA4H,1,1.17,105,inactive
LTA4H,2,-0.159,78.7,inactive
LTA4H,3,0.477,91.4,inactive
HNMT,1,-0.367,74.6,inactive
HNMT,2,1.27,107,inactive
HNMT,3,-0.664,68.7,inactive
NUDT3,1,-0.34,75.1,inactive
NUDT3,2,-1.18,58.5,inactive
NUDT3,3,-0.0691,80.5,inactive
LOC642620 (retired record),1,-0.784,66.3,inactive
LOC642620 (retired record),2,0.762,97,inactive
LOC642620 (retired record),3,1.24,107,inactive
LOC642620 (retired record),4,-1.85,45.2,inactive
LOC642620 (retired record),5,2.03,122,inactive
LOC642620 (retired record),6,1.25,107,inactive
